Results are given in words; binding and its absence hold for the method and conditions named. In cells and extracts the contact can be indirect. Here binding means that the protein was enriched with, or labelled near, the bait; the list need not be complete. Where a sequence is shown, tags or fusion partners need not be part of it.
T1: Dhh1−GFP (S. cerevisiae (endogenous in BY4741-derived yeast)) (UniProt P39517)
T1 sequence: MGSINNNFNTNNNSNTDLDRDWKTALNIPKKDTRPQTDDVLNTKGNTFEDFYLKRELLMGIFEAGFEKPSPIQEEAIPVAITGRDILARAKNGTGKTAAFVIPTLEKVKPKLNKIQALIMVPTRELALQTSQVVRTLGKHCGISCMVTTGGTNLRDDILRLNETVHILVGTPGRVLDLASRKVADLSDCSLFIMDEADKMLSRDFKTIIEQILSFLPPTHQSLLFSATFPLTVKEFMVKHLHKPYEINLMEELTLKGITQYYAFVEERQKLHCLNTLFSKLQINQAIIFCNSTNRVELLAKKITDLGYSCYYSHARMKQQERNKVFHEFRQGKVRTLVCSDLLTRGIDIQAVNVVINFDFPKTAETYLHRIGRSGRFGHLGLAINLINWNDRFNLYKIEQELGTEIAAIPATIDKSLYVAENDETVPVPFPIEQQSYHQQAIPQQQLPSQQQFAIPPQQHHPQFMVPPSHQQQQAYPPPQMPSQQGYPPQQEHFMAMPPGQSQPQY

B1: Met6 (protein, UniProt P05694 1-767)
chain: MVQSAVLGFPRIGPNRELKKATEGYWNGKITVDELFKVGKDLRTQNWKLQKEAGVDIIPSNDFSFYDQVLDLSLLFNVIPDRYTKYDLSPIDTLFAMGRGLQRKATETEKAVDVTALEMVKWFDSNYHYVRPTFSKTTQFKLNGQKPVDEFLEAKELGIHTRPVLLGPVSYLFLGKADKDSLDLEPLSLLEQLLPLYTEILSKLASAGATEVQIDEPVLVLDLPANAQAAIKKAYTYFGEQSNLPKITLATYFGTVVPNLDAIKGLPVAALHVDFVRAPEQFDEVVAAIGNKQTLSVGIVDGRNIWKNDFKKSSAIVNKAIEKLGADRVVVATSSSLLHTPVDLNNETKLDAEIKGFFSFATQKLDEVVVITKNVSGQDVAAALEANAKSVESRGKSKFIHDAAVKARVASIDEKMSTRAAPFEQRLPEQQKVFNLPLFPTTTIGSFPQTKDIRINRNKFNKGTISAEEYEKFINSEIEKVIRFQEEIGLDVLVHGEPERNDMVQYFGEQINGYAFTVNGWVQSYGSRYVRPPIIVGDLSRPKAMSVKESVYAQSITSKPVKGMLTGPITCLRWSFPRDDVDQKTQAMQLALALRDEVNDLEAAGIKVIQVDEPALREGLPLREGTERSAYYTWAAEAFRVATSGVANKTQIHSHFCYSDLDPNHIKALDADVVSIEFSKKDDANYIAEFKNYPNHIGLGLFDIHSPRIPSKDEFIAKISTILKSYPAEKFWVNPDCGLKTRGWEETRLSLTHMVEAAKYFREQYKN
B2: Tsa1 (protein, UniProt P34760 1-196)
chain: MVAQVQKQAPTFKKTAVVDGVFDEVSLDKYKGKYVVLAFIPLAFTFVCPTEIIAFSEAAKKFEEQGAQVLFASTDSEYSLLAWTNIPRKEGGLGPINIPLLADTNHSLSRDYGVLIEEEGVALRGLFIIDPKGVIRHITINDLPVGRNVDEALRLVEAFQWTDKNGTVLPCNWTPGAATIKPTVEDSKEYFEAANK
B3: Dps1 (protein, UniProt P04802 1-557)
chain: MSQDENIVKAVEESAEPAQVILGEDGKPLSKKALKKLQKEQEKQRKKEERALQLEAEREAREKKAAAEDTAKDNYGKLPLIQSRDSDRTGQKRVKFVDLDEAKDSDKEVLFRARVHNTRQQGATLAFLTLRQQASLIQGLVKANKEGTISKNMVKWAGSLNLESIVLVRGIVKKVDEPIKSATVQNLEIHITKIYTISETPEALPILLEDASRSEAEAEAAGLPVVNLDTRLDYRVIDLRTVTNQAIFRIQAGVCELFREYLATKKFTEVHTPKLLGAPSEGGSSVFEVTYFKGKAYLAQSPQFNKQQLIVADFERVYEIGPVFRAENSNTHRHMTEFTGLDMEMAFEEHYHEVLDTLSELFVFIFSELPKRFAHEIELVRKQYPVEEFKLPKDGKMVRLTYKEGIEMLRAAGKEIGDFEDLSTENEKFLGKLVRDKYDTDFYILDKFPLEIRPFYTMPDPANPKYSNSYDFFMRGEEILSGAQRIHDHALLQERMKAHGLSPEDPGLKDYCDGFSYGCPPHAGGGIGLERVVMFYLDLKNIRRASLFPRDPKRLRP
B4: Hom6 (protein, UniProt P31116 1-359)
chain: MSTKVVNVAVIGAGVVGSAFLDQLLAMKSTITYNLVLLAEAERSLISKDFSPLNVGSDWKAALAASTTKTLPLDDLIAHLKTSPKPVILVDNTSSAYIAGFYTKFVENGISIATPNKKAFSSDLATWKALFSNKPTNGFVYHEATVGAGLPIISFLREIIQTGDEVEKIEGIFSGTLSYIFNEFSTSQANDVKFSDVVKVAKKLGYTEPDPRDDLNGLDVARKVTIVGRISGVEVESPTSFPVQSLIPKPLESVKSADEFLEKLSDYDKDLTQLKKEAATENKVLRFIGKVDVATKSVSVGIEKYDYSHPFASLKGSDNVISIKTKRYTNPVVIQGAGAGAAVTAAGVLGDVIKIAQRL
B5: Sec31 (protein, UniProt P38968 1-1273)
chain: MVKLAEFSRTATFAWSHDKIPLLVSGTVSGTVDANFSTDSSLELWSLLAADSEKPIASLQVDSKFNDLDWSHNNKIIAGALDNGSLELYSTNEANNAINSMARFSNHSSSVKTVKFNAKQDNVLASGGNNGEIFIWDMNKCTESPSNYTPLTPGQSMSSVDEVISLAWNQSLAHVFASAGSSNFASIWDLKAKKEVIHLSYTSPNSGIKQQLSVVEWHPKNSTRVATATGSDNDPSILIWDLRNANTPLQTLNQGHQKGILSLDWCHQDEHLLLSSGRDNTVLLWNPESAEQLSQFPARGNWCFKTKFAPEAPDLFACASFDNKIEVQTLQNLTNTLDEQETETKQQESETDFWNNVSREESKEKPTVFHLQAPTWYGEPSPAAHWAFGGKLVQITPDGKGVSITNPKISGLESNTTLSEALKTKDFKPLINQRLVKVIDDVNEEDWNLLEKLSMDGTEEFLKEALAFDNDESDAQDDANNEKEDDGEEFFQQIETNFQPEGDFSLSGNIEQTISKNLVSGNIKSAVKNSLENDLLMEAMVIALDSNNERLKESVKNAYFAKYGSKSSLSRILYSISKREVDDLVENLDVSQWKFISKAIQNLYPNDIAQRNEMLIKLGDRLKENGHRQDSLTLYLAAGSLDKVASIWLSEFPDLEDKLKKDNKTIYEAHSECLTEFIERFTVFSNFINGSSTINNEQLIAKFLEFINLTTSTGNFELATEFLNSLPSDNEEVKTEKARVLIASGKSLPAQNPATATTSKAKYTNAKTNKNVPVLPTPGMPSTTSIPSMQAPFYGMTPGASANALPPKPYVPATTTSAPVHTEGKYAPPSQPSMASPFVNKTNSSTRLNSFAPPPNPYATATVPATNVSTTSIPQNTFAPIQPGMPIMGDYNAQSSSIPSQPPINAVSGQTPHLNRKANDGWNDLPLKVKEKPSRAKAVSVAPPNILSTPTPLNGIPANAASTMPPPPLSRAPSSVSMVSPPPLHKNSRVPSLVATSESPRASISNPYAPPQSSQQFPIGTISTANQTSNTAQVASSNPYAPPPQQRVATPLSGGVPPAPLPKASNPYAPTATTQPNGSSYPPTGPYTNNHTMTSPPPVFNKPPTGPPPISMKKRSNKLASIEQNPSQGATYPPTLSSSASPLQPSQPPTLASQVNTSAENVSHEIPADQQPIVDFLKEELARVTPLTPKEYSKQLKDCDKRLKILFYHLEKQDLLTQPTIDCLHDLVALMKEKKYKEAMVIHANIATNHAQEGGNWLTGVKRLIGIAEATLN
B6: Mes1 (protein, UniProt P00958 1-751)
chain: MSFLISFDKSKKHPAHLQLANNLKIALALEYASKNLKPEVDNDNAAMELRNTKEPFLLFDANAILRYVMDDFEGQTSDKYQFALASLQNLLYHKELPQQHVEVLTNKAIENYLVELKEPLTTTDLILFANVYALNSSLVHSKFPELPSKVHNAVALAKKHVPRDSSSFKNIGAVKIQADLTVKPKDSEILPKPNERNILITSALPYVNNVPHLGNIIGSVLSADIFARYCKGRNYNALFICGTDEYGTATETKALEEGVTPRQLCDKYHKIHSDVYKWFQIGFDYFGRTTTDKQTEIAQHIFTKLNSNGYLEEQSMKQLYCPVHNSYLADRYVEGECPKCHYDDARGDQCDKCGALLDPFELINPRCKLDDASPEPKYSDHIFLSLDKLESQISEWVEKASEEGNWSKNSKTITQSWLKDGLKPRCITRDLVWGTPVPLEKYKDKVLYVWFDATIGYVSITSNYTKEWKQWWNNPEHVSLYQFMGKDNVPFHTVVFPGSQLGTEENWTMLHHLNTTEYLQYENGKFSKSRGVGVFGNNAQDSGISPSVWRYYLASVRPESSDSHFSWDDFVARNNSELLANLGNFVNRLIKFVNAKYNGVVPKFDPKKVSNYDGLVKDINEILSNYVKEMELGHERRGLEIAMSLSARGNQFLQENKLDNTLFSQSPEKSDAVVAVGLNIIYAVSSIITPYMPEIGEKINKMLNAPALKIDDRFHLAILEGHNINKAEYLFQRIDEKKIDEWRAKYGGQQV
B7: Ahp1 (protein, UniProt P38013 1-176)
chain: MSDLVNKKFPAGDYKFQYIAISQSDADSESCKMPQTVEWSKLISENKKVIITGAPAAFSPTCTVSHIPGYINYLDELVKEKEVDQVIVVTVDNPFANQAWAKSLGVKDTTHIKFASDPGCAFTKSIGFELAVGDGVYWSGRWAMVVENGIVTYAAKETNPGTDVTVSSVESVLAHL
B8: Bat1 (protein, UniProt P38891 17-393)
chain: LATGAPLDASKLKITRNPNPSKPRPNEELVFGQTFTDHMLTIPWSAKEGWGTPHIKPYGNLSLDPSACVFHYAFELFEGLKAYRTPQNTITMFRPDKNMARMNKSAARICLPTFESEELIKLTGKLIEQDKHLVPQGNGYSLYIRPTMIGTSKGLGVGTPSEALLYVITSPVGPYYKTGFKAVRLEATDYATRAWPGGVGDKKLGANYAPCILPQLQAAKRGYQQNLWLFGPEKNITEVGTMNVFFVFLNKVTGKKELVTAPLDGTILEGVTRDSVLTLARDKLDPQEWDINERYYTITEVATRAKQGELLEAFGSGTAAVVSPIKEIGWNNEDIHVPLLPGEQCGALTKQVAQWIADIQYGRVNYGNWSKTVADLN
B9: Gln1 (protein, UniProt P32288 1-370)
chain: MAEASIEKTQILQKYLELDQRGRIIAEYVWIDGTGNLRSKGRTLKKRITSIDQLPEWNFDGSSTNQAPGHDSDIYLKPVAYYPDPFRRGDNIVVLAACYNNDGTPNKFNHRHEAAKLFAAHKDEEIWFGLEQEYTLFDMYDDVYGWPKGGYPAPQGPYYCGVGAGKVYARDMIEAHYRACLYAGLEISGINAEVMPSQWEFQVGPCTGIDMGDQLWMARYFLHRVAEEFGIKISFHPKPLKGDWNGAGCHTNVSTKEMRQPGGMKYIEQAIEKLSKRHAEHIKLYGSDNDMRLTGRHETASMTAFSSGVANRGSSIRIPRSVAKEGYGYFEDRRPASNIDPYLVTGIMCETVCGAIDNADMTKEFERESS

target: T1, Dhh1−GFP (S. cerevisiae (endogenous in BY4741-derived yeast)); test: affinity purification with mass spectrometry; Dhh1−GFP captured by anti-GFP IgG cross-linked to Protein-G Dynabeads from cleared lysate of cryo-ground yeast; RB buffer (30 mM K-Hepes pH 7.4, 150 mM KCl, 2 mM MgCl2, 0.2% NP-40, 0.1% Tween-20, 1 mM DTT, RNase inhibitor), 30 min at 4°; five purifications (two +glucose YPD, three 30 min −glucose YEP); hits filtered by SAINT against CRAPome controls

binding, binds:
B1
B2
B3
B4
B5
B6
B7
B8
B9
